Source: patent US5342771A, “Functionalized imidazolinone haptens and protein conjugates thereof useful in assays for the detection of imidazolinone herbicides” (American Cyanamid Company, priority 1993, dated 1994)

Tested on: antibody
Assay: ELISA standard curve with imazaquin standards (OD 650)
Format: binding, New Zealand white rabbits
Details: mean of triplicate

CC(C)C1(C)N=C(c2nc3ccccc3cc2C(=O)O)NC1=O (stereo not shown) [Imazaquin, 2-(4-isopropyl-4-methyl-5-oxo-2-imidazolin-2-yl)-3-quinolinecarboxylic acid]
OD 650 Reading (imazaquin concentration 0.39 ng/mL): 1.452
OD 650 Reading (imazaquin concentration 0.78 ng/mL): 1.334
OD 650 Reading (imazaquin concentration 1.56 ng/mL): 1.184
OD 650 Reading (imazaquin concentration 3.12 ng/mL): 1.064
OD 650 Reading (imazaquin concentration 6.25 ng/mL): 0.860
OD 650 Reading (imazaquin concentration 12.5 ng/mL): 0.734
OD 650 Reading (imazaquin concentration 25.0 ng/mL): 0.564
